These are yes or no findings as the source states them, for the method shown.
Experiments:
[1] = target: isolated C-terminal domain of DnaJB8, CTD_(170–232) (human) (UniProt Q8NHS0); experiment: cross-linking; single recombinant proteins (100 μM) in 1× PBS, 37 °C, 30 min, ADH/DMTMM or DSS; SDS-PAGE and XL–MS; both purified
[2] = target: isolated C-terminal domain of DnaJB8, CTD_(170–232) (human) (UniProt Q8NHS0); experiment: SEC-MALS; Superdex 200 Increase 10/300 in 1× PBS with 1 mM TCEP, 0.5 mL/min; 5.1, 5.0 and 6.6 mg/mL loaded for DnaJB8F→S, JD and CTD; both purified

B1: isolated C-terminal domain of DnaJB8, CTD_(170–232) (domain or fragment, UniProt Q8NHS0 170-232)
chain: GGSSSGSSGFKSVMSSTEMINGHKVTTKRIVENGQERVEVEEDGQLKSVTVNGKEQLKWMDSK
B1 was tested, and the binding [1] was “no binding (tested: 100 μM)” and the binding [2] was “no binding (tested: 6.6 mg/mL)”.

— PMC7878476
